Experimental data: the supplement of paper PMC6143611
Counter-ions that a name gives are not always drawn. ± gives the uncertainty stated by the source. Some of the results follow. Plates or batches differ in their baseline, so values are only roughly comparable.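 A heat-shock-induced fluorescent stripe was set in larval rod outer segments at 6 dpf. Shedding distance ran from stripe to outer segment tip, measured by confocal stacks in about three fish per compound. Controls: 0.2% DMSO vehicle. Flagged compounds showed ≥20% change from same-week control, p < 0.001 (Dunnett test on mixed-effects models).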

System: Danio rerio larva rod photoreceptor outer segment
Assay: rod outer segment growth distance Dg, difference from same-week DMSO control mean; higher = more outer segment growth
Conditions: 20 µM; treatment time: 4 days (6-10 dpf)

Going from CC(C)C[C@H](NC(=O)[C@H](CCc1ccccc1)NC(=O)CN1CCOCC1)C(=O)N[C@@H](Cc1ccccc1)C(=O)N[C@@H](CC(C)C)C(=O)[C@@]1(C)CO1 [Carfilzomib (PR-171)] to Nc1ccccc1NC(=O)c1ccc(CNC(=O)OCc2cccnc2)cc1 [Entinostat (MS-275)], the “rod outer segment growth distance Dg” value falls from 0.25 ± 0.16 um to -0.57 ± 0.13 um.

NNC(=O)c1ccncc1 [Isoniazid] and C#CCN[C@@H]1CCc2ccccc21 [Rasagiline Mesylate] are within error of each other in “rod outer segment growth distance Dg” value: 0.6 ± 0.23 um for the first, 0.4 ± 0.2 um for the second.

Compared with OCCN(CCO)c1nc(N2CCCCC2)c2nc(N(CCO)CCO)nc(N3CCCCC3)c2n1 [Dipyridamole], NC(=O)c1noc([C@H](CCCC2CCCCC2)CC(=O)NO)n1 is lower in “rod outer segment growth distance Dg” value: 0.51 ± 0.17 um for the first, -0.15 ± 0.21 um for the second.

Compared with CCCCCCCCCCCCCCCC(=O)O[C@@H]1[C@@H](O)[C@@H](O)[C@@H]([C@H](NC(=O)[C@@H]2C[C@@H](CCC)CN2C)[C@H](C)Cl)O[C@@H]1SC [Clindamycin palmitate HCl], CC1(C)O[C@@H]2C[C@H]3[C@@H]4CCC5=CC(=O)C=C[C@]5(C)[C@@]4(F)[C@@H](O)C[C@]3(C)[C@]2(C(=O)CO)O1 [Triamcinolone Acetonide] is lower in “rod outer segment growth distance Dg” value: -0.31 ± 0.22 um for the first, -0.87 ± 0.24 um for the second.

Nc1cc(C(Cl)=C(Cl)Cl)c(S(N)(=O)=O)cc1S(N)(=O)=O [Clorsulon] and O=C1c2c(O)ccc(O)c2C(=O)c2c(NCCNCCO)ccc(NCCNCCO)c21 [Mitoxantrone HCl] are within error of each other in “rod outer segment growth distance Dg” value: -0.37 ± 0.18 um for the first, -0.02 ± 0.24 um for the second.

First: Cn1c(=O)c2[nH]cnc2n(C)c1=O [Aminophylline]
Second: CNCc1ccc(-c2[nH]c3cc(F)cc4c3c2CCNC4=O)cc1
The “rod outer segment growth distance Dg” value of the first is higher: 0.71 ± 0.19 um for the first, -1.62 ± 0.22 um for the second.
